Primary screen of a compound library

The values are deposited in ChEMBL (CHEMBL3988442, “University of Dundee, Small-Polar-MMV Screening Library” (2021)).

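Whole-parasite assay of Trypanosoma brucei over 72 hours; the read-out is not stated. Compounds at 30 µM. Higher reads as stronger inhibition (inferred: compounds with an IC50 in retests scored well above the rest). Values scatter widely below zero; nearly all retest evidence comes from the higher of the two concentrations used. Of about 64,000 compounds tested this way, about 940 (1.5%) reached 50% or more in at least one test.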

Values are the deposited “Percent Effect”, in %. How 0% and 100% were set is not recorded. Most values in the screen are low, and negative values occur. Compounds were drawn at random from those tested, without regard to their results.

Compound	Percent Effect
[H][C@]12C[C@H](C(=O)NC)N(S(C)(=O)=O)[C@@]1([H])CN(C(=O)c1ccoc1)C2	-7.296%
COCCNC(=O)NCc1cc(-c2ccncc2)n(C2CCCC2)n1	-40.04%
Cc1cccn2cc(CN3CCCC(O)C3)nc12 (stereo not shown)	-2.344%
CC(C)c1nc(C2CCCN(C(=O)Cn3ccccc3=O)C2)no1 (stereo not shown)	-10.4%
O=C(NCc1ccon1)N1CCC(n2ccc(C(F)(F)F)n2)CC1	-33.23%
O=C(CN1CCOCC1CC(=O)c1ccco1)NCc1ccccn1 (stereo not shown)	-47.67%
CCc1nc2n(n1)CC(NCc1cnc(N(CC)CC)s1)CC2 (stereo not shown)	-19.56%
NC(=O)N1CCCC(C(=O)NCc2noc(Cc3ccccc3)n2)C1 (stereo not shown)	-10.45%
[H][C@]12CNC[C@@]1(C(=O)NCC1(COC)CC1)CN(C1CCCC1)C2	-2.027%
CCN(Cc1cccc(F)c1)Cn1nc(C)c2c(C)onc2c1=O	-8.66%
CCCOCC(=O)Nc1ncc(I)cc1C	0.8928%
Cc1c(-c2cnn(C)c2)nc(N)c(C#N)c1-c1ccc(CO)o1	-243.3%
COc1cccc(OCC2CCCN(C(=O)c3ncc(F)cc3F)C2)c1 (stereo not shown)	-36.45%
Cc1cc(C2CCCN2C(=O)Cn2c(C)cc(=O)c3ccccc32)on1 (stereo not shown)	-22.61%
O=C(CNc1cc(-n2cnnn2)ccc1F)Nc1cc(F)ccc1F	-79.79%
CCc1nnc2n1CCN(C(=O)c1cc(C)n(-c3ccccc3)c1C)C2	17.41%
CCCC(NC(=O)c1cc(C)n(C2CC2)c1C)c1nnn[nH]1 (stereo not shown)	11.75%
CC1(C2CCN(CC(N)=O)CC2)CN(Cc2ccccc2)C(=O)CO1 (stereo not shown)	-6.981%
[H][C@@]12C[C@H](C(=O)Nc3ccccc3)[C@@]([H])(CN(C(=O)Nc3ccccc3)C1)O2	-32.32%
CCc1ccccc1-c1cc(C)nc(N)n1	39.43%
CCn1ccnc1CN1CCN(Cc2ccc(C#N)cc2)CC1	-3.315%
Fc1cccc(N2CCCC3(CN(Cc4ccccn4)CCO3)C2)c1.O=C(O)C(F)(F)F.O=C(O)C(F)(F)F.O=C(O)C(F)(F)F (stereo not shown)	1.036%
CN1C(=O)CC(c2ccccc2)C12CCN(CC1CCOCC1)CC2.O=C(O)C(F)(F)F (stereo not shown)	-3.358%
Cc1cc(Nc2cnccn2)cc(C2CCCNC2)n1 (stereo not shown)	-9.252%
Fc1cccc(N2CCCC3(CN(Cc4cccnc4)CCO3)C2)c1.O=C(O)C(F)(F)F.O=C(O)C(F)(F)F.O=C(O)C(F)(F)F (stereo not shown)	86.99%
O=C(NCC1(c2ccc(F)cc2)CCC1)N1CCC2(CCOCC2)C1	-33.71%
O=C(OCc1cc(=O)n2cc(Br)ccc2n1)c1ccc2c(c1)OCO2	-10.32%
CCc1ncc2c(n1)CN(CC(=O)N1CCc3sccc3C1)CC2	-43.47%
[H][C@]12OCCC[C@]1([H])N(C(=O)c1ccccn1)C[C@H]2OCc1cccnc1	37.07%
CC(C)(C)c1n[nH]cc1CNC1CCC(C(F)(F)F)CC1.Cl (stereo not shown)	-31.9%
CC(C)(O)c1cc(CC2(NCC3CCCCC3)COC2)no1	0.1196%
O=C(O)[C@@H]1OCC(=O)N(Cc2cccc(Cl)c2)[C@@H]1c1ccccc1	-20.57%
COc1ccc(-c2cnc(CN(CC(N)=O)C3CCCC3)o2)cc1	-14.76%
COc1cccc(S(=O)(=O)NC(=O)CCC2CCCO2)c1 (stereo not shown)	-14.9%
CCn1cnnc1CCNC(=O)C1COc2ccc(OC)cc2C1 (stereo not shown)	-25.16%
O=c1c(-c2ccnc(N3CCCC[C@@H]3CO)n2)cnc2sccn12	-0.9569%
CN(C)Cc1cn(-c2ccccc2C(=O)NCC2CCCCN2C)cn1 (stereo not shown)	-11.01%
Cc1nc(N)sc1C(=O)N[C@H]1CN(CCO)C[C@@H]1C1CC1	8.841%
CC(C)c1nnc(CN2C(=O)OC[C@@H]2C(C)C)o1	-16.59%
CC1CN(CC2CCCC2)CCN1c1ccc2nncn2n1 (stereo not shown)	98.48%
Cc1nc(O)c2nnn(C[C@H]3CCCN3C(=O)C3CCCC3)c2n1	3.429%
COc1cc(C2CC(=O)Nc3c2nc2n3CCCC2)cc(OC)c1O (stereo not shown)	-17.08%
CCOCCC(=O)NC(Cc1ccc(C)cc1)c1ccccn1 (stereo not shown)	-30.6%
CCOCC(=O)N1CCC[C@]2(C[C@@H](OCc3ccncc3)CO2)C1	4.27%
Cc1nn(C)c(N2CCOCC2)c1CNCc1ccnc(N(C)C)c1	-19.08%
[H][C@]12CN(Cc3ccc(F)cc3)C[C@@]1([H])OCCN(S(C)(=O)=O)C2	-36.32%
CC(C)(C)S(=O)(=O)CCNC(=O)c1cnc(-c2ccccc2)nc1	-36.56%
Clc1ccc(N2CCN(CCCN3CCCCC3)CC2)nc1	-26.13%
Cc1cc(C)nc(C2CCN(C(=O)c3cnco3)C2)n1 (stereo not shown)	-4.143%
COCc1nccc(C2CCCN(Cc3cccc(F)c3)C2)n1 (stereo not shown)	14.56%
[H][C@]12CCC[C@@]1(COC)CN(C(=O)CCOC)C2	-3.194%
O=C(O)C(F)(F)F.O=C1COC2(CCN(C(=O)c3ccoc3)CC2)CN1Cc1ccccn1	-4.775%
Cc1noc(CCCC(=O)N2CCN(C)CC2c2ccccc2)n1 (stereo not shown)	-55.16%
COc1cccc(Cn2c(C3CCNCC3)cc3cccnc32)c1.Cl	94.63%
Cc1ncc(-c2ccnc(NC3CC3)n2)c(-c2cccnc2)n1	-23.31%
CCCc1nc(C)cc(NCc2ccc(S(N)(=O)=O)cc2)n1	21.87%
COCCC(=O)N1CCC(c2cc(O)n(C)n2)C1 (stereo not shown)	-26.92%
CCC1CCCN(S(=O)(=O)c2cnc3onc(C)c3c2)C1 (stereo not shown)	6.271%
CCNC(=O)N1C[C@@H](NC(C)=O)[C@H](c2ccc(C)o2)C1	-19.17%
Cc1nn(C)cc1-c1ccnc(N(C)Cc2ccoc2)n1	-20.48%
Cc1nnn2c1COCC(CNC(=O)c1cnoc1C)C2 (stereo not shown)	-32.86%

For reference, 7 entries once more:

| Compound | Percent Effect |
|---|---|
| `[H][C@]12CNC[C@@]1(C(=O)NCC1(COC)CC1)CN(C1CCCC1)C2` | -2.027% |
| `CN1C(=O)CC(c2ccccc2)C12CCN(CC1CCOCC1)CC2.O=C(O)C(F)(F)F` (stereo not shown) | -3.358% |
| `CC(C)(C)c1n[nH]cc1CNC1CCC(C(F)(F)F)CC1.Cl` (stereo not shown) | -31.9% |
| `[H][C@@]12C[C@H](C(=O)Nc3ccccc3)[C@@]([H])(CN(C(=O)Nc3ccccc3)C1)O2` | -32.32% |
| `COCCNC(=O)NCc1cc(-c2ccncc2)n(C2CCCC2)n1` | -40.04% |
| `CCc1ncc2c(n1)CN(CC(=O)N1CCc3sccc3C1)CC2` | -43.47% |
| `CCCc1nc(C)cc(NCc2ccc(S(N)(=O)=O)cc2)n1` | 21.87% |